Results deposited as PubChem BioAssay AID1671195 (Yale University, 2021)
Here is a random part of about 22,000 reagents tested. In the full data, about 1,510 (6.9%) were called active. 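Active includes knockdowns raising or lowering LDL uptake; positive z-scores mean more uptake, negative mean less.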 Unmarked entries are inactive.

- Test: 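Regulators of LDL receptor activity judged by labelled LDL uptake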 (primary screen)
- Cells: human Huh7 hepatoma cells
- Knock-down reagent: siRNA pool against human genes, 18 nM
- Duration: about 2 to 2.5 days of knockdown, then 8 h LDL uptake
- Challenge: DiI-labelled LDL at 30 µg/ml for 8 h, in lipoprotein-deficient serum medium
- Measurement: 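Per-cell DiI-LDL intensity by automated imaging; well means scaled to the plate median and given as a robust z-score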
- Direction: robust z-score: higher = more LDL uptake after knockdown
- Hit rule: 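a gene counts as active if at least two replicate z-scores exceed ±2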

| target gene | PubChem SID | robust z-score, replicate 1 | robust z-score, replicate 2 | robust z-score, replicate 3 |
| --- | --- | --- | --- | --- |
| SULT1A1 (GeneID 6817) | SID442901002 | -0.84 | -0.883 | -0.788 |
| ZNF69 (GeneID 7620) | SID442886715 | 0.448 | 1.86 | 0.929 |
| OPTN (GeneID 10133) | SID442900787 | -0.293 | -1.06 | -1.07 |
| ZNF202 (GeneID 7753) | SID442888649 | 0.457 | 0.518 | 1.08 |
| YME1L1 (GeneID 10730) | SID442887457 | 0.33 | 1.89 | 0.515 |
| LOC440965 (retired record) (GeneID 440965) | SID442887695 | 0.656 | 0.97 | 0.958 |
| AZU1 (GeneID 566) | SID442902633 | -1.63 | -0.803 | -0.914 |
| KRTAP5-3 (GeneID 387266) | SID442904340 | -1.32 | -1.78 | -1.67 |
| DOCK8-AS1 (GeneID 157983) | SID442894531 | 0.0287 | 0.159 | -0.405 |
| LOC283299 (GeneID 283299) | SID442893250 | 0.0301 | -0.036 | 0.222 |
| LINC01115 (GeneID 339822) | SID442894181 | -0.0943 | -0.164 | 0.151 |
| OR56A5 (GeneID 390084) | SID442888680 | 0.629 | 0.808 | 0.6 |
| LINC02579 (GeneID 339807) | SID442898441 | -0.682 | -0.572 | -0.242 |
| SEC16A (GeneID 9919) | SID442885763 | 1.15 | 1.64 | 1.35 |
| G6PC2 (GeneID 57818) | SID442889934 | 0.921 | 0.526 | 0.0129 |
| GOPC (GeneID 57120) | SID442886575 | 0.326 | 1.63 | 1.4 |
| MMP15 (GeneID 4324) | SID442898079 | -1.03 | -0.831 | 0.483 |
| SAFB (GeneID 6294) | SID442890486 | 0.751 | 0.833 | -0.351 |
| WWP1 (GeneID 11059) | SID442885181 | 1.32 | 1.73 | 1.85 |
| ZNF516-DT (GeneID 400658) | SID442883619 | 2.65 (active) | 2.79 | 2.24 |
| EBNA1BP2 (GeneID 10969) | SID442901550 | -1.38 | 0.026 | -1.4 |
| ADAP2 (GeneID 55803) | SID442893589 | 0.145 | 0.0941 | -0.143 |
| SLC35A5 (GeneID 55032) | SID442898102 | -0.631 | 0.591 | -1.34 |
| RPL35A (GeneID 6165) | SID442903268 | -0.975 | -1.38 | -1.42 |
| FCRL6 (GeneID 343413) | SID442885415 | 1.77 | 1.56 | 1.23 |
| CPB1 (GeneID 1360) | SID442883716 | 2.58 (active) | 2.23 | 2.44 |
| LTAP1 (GeneID 25912) | SID442900333 | -0.901 | -0.509 | -0.83 |
| LOC340511 (retired record) (GeneID 340511) | SID442890601 | 0.491 | 0.384 | 0.304 |
| LOC440702 (retired record) (GeneID 440702) | SID442883489 | 2.71 (active) | 2.87 | 2.8 |
| UBL5 (GeneID 59286) | SID442898238 | -0.13 | -0.308 | -0.992 |
| SMC1B (GeneID 27127) | SID442903872 | -1.74 | -1.45 | -1.06 |
| PRELID1 (GeneID 27166) | SID442890625 | -1.28 | 0.648 | 1.8 |
| NAGK (GeneID 55577) | SID442883934 | 2.67 (active) | 2.15 | 1.61 |
| LOC442022 (retired record) (GeneID 442022) | SID442903675 | -1.4 | -1.25 | -1.42 |
| P4HB (GeneID 5034) | SID442887347 | 0.805 | 0.197 | 1.8 |
| IFT43 (GeneID 112752) | SID442888032 | 0.424 | 0.823 | 1.13 |
| ZNF75A (GeneID 7627) | SID442893010 | 0.137 | 0.191 | -0.0367 |
| SUGT1P4-STRA6LP-CCDC180 (GeneID 57653) | SID442889965 | 2.18 | -0.172 | -0.567 |
| CCN1 (GeneID 3491) | SID442888891 | 0.00657 | 0.552 | 1.38 |
| UTY (GeneID 7404) | SID442900691 | -1.25 | -0.0097 | -1.12 |
| EIF4E2 (GeneID 9470) | SID442898626 | -0.45 | -0.888 | -0.223 |
| FRMD6-AS1 (GeneID 145438) | SID442888971 | 0.985 | 0.653 | 0.259 |

Limited to “robust z-score, replicate 3” (5 entries from above):
LOC440702 (retired record) (GeneID 440702) [SID442883489]: 2.8 (active)
UBL5 (GeneID 59286) [SID442898238]: -0.992
SMC1B (GeneID 27127) [SID442903872]: -1.06
PRELID1 (GeneID 27166) [SID442890625]: 1.8
NAGK (GeneID 55577) [SID442883934]: 1.61 (active)

Additional reagents:
| target gene | PubChem SID | robust z-score, replicate 1 | robust z-score, replicate 2 | robust z-score, replicate 3 |
| --- | --- | --- | --- | --- |
| SSBP1 (GeneID 6742) | SID442898442 | -0.745 | -0.524 | -0.23 |
| CACNA1A (GeneID 773) | SID442889327 | 0.558 | 0.9 | 0.273 |
| H2AP (GeneID 25763) | SID442899681 | -1.09 | -0.149 | -0.721 |
| SAT1 (GeneID 6303) | SID442890902 | -0.0358 | 0.701 | 0.403 |
| TTC7A (GeneID 57217) | SID442890203 | 0.316 | 0.514 | 0.52 |
| GPSM2 (GeneID 29899) | SID442898295 | -0.672 | -0.531 | -0.244 |
| PSMD14 (GeneID 10213) | SID442888656 | -0.0362 | 0.452 | 1.63 |
| RAB4B (GeneID 53916) | SID442896581 | -1.21 | 1.49 | -1.15 |
| C3orf18 (GeneID 51161) | SID442901968 | -1.56 | 0.349 | -1.76 |
| LOC441130 (retired record) (GeneID 441130) | SID442899875 | -0.354 | -1 | -0.685 |
| TROAP (GeneID 10024) | SID442900210 | 0.178 | -1.44 | -0.922 |
| CTDP1-DT (GeneID 284241) | SID442898120 | -0.687 | -0.435 | -0.269 |
| NTS (GeneID 4922) | SID442891495 | -0.112 | 0.664 | 0.286 |
| CNTROB (GeneID 116840) | SID442884106 | 0.616 (active) | 2.87 | 2.4 |
| SAMD14 (GeneID 201191) | SID442891373 | -0.108 | -0.223 | 1.21 |
| TMEM35A (GeneID 59353) | SID442887960 | 1.18 | 0.764 | 0.476 |
| REG1B (GeneID 5968) | SID442896434 | -0.426 | -0.236 | -0.157 |
| SNHG12 (GeneID 85028) | SID442894806 | -0.481 | -0.000126 | 0.174 |
| MRGPRD (GeneID 116512) | SID442898274 | -0.738 | -0.23 | -0.473 |
| CPT1A (GeneID 1374) | SID442891397 | 0.623 | -0.119 | 0.37 |
| BMP10 (GeneID 27302) | SID442893871 | 0.462 | 0.524 | -0.981 |
| CCPG1 (GeneID 9236) | SID442901567 | -0.82 | -0.964 | -0.977 |
| PCDH17 (GeneID 27253) | SID442900571 | -0.568 | -0.604 | -1.16 |
| LOC441622 (retired record) (GeneID 441622) | SID442888331 | 0.451 | 1.47 | 0.296 |
| NAA35 (GeneID 60560) | SID442890264 | 0.247 | 0.502 | 0.576 |
| CDH16 (GeneID 1014) | SID442894030 | 0.345 | -0.371 | -0.0299 |
